# Results are given in words; binding and its absence hold for the method and conditions named. Binding can be weak; no strength is given. For some assays here: Binding seen in cells or lysates may run through a third protein.
# By UniProt entry, the sequences of proteins in these tests, tags left out. Where a name states a change or a piece, a line headed by the entry shows the natural chain unless it says otherwise. Residues count along the entry.
# UniProt P15917, residues 34-809: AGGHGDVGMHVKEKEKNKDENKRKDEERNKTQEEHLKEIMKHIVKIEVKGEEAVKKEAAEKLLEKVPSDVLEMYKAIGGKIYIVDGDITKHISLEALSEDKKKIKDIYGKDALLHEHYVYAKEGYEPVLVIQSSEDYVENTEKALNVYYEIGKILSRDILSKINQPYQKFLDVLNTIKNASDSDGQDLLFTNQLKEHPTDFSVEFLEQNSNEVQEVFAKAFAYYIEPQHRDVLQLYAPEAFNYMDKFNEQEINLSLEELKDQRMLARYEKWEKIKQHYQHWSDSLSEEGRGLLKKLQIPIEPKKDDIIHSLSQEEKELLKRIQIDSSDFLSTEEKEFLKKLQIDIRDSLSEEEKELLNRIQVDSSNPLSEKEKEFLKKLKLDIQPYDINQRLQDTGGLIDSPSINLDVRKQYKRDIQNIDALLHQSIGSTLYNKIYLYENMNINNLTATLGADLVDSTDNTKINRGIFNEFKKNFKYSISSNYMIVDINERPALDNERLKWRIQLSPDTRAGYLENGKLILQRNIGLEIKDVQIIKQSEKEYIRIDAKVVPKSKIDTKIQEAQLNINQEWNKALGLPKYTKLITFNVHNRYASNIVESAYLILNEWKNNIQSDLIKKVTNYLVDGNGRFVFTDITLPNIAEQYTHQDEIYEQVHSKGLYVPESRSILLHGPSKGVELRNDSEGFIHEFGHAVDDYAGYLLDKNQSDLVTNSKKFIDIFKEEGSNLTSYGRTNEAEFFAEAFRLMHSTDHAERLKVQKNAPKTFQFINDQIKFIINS
# UniProt Q91VR2: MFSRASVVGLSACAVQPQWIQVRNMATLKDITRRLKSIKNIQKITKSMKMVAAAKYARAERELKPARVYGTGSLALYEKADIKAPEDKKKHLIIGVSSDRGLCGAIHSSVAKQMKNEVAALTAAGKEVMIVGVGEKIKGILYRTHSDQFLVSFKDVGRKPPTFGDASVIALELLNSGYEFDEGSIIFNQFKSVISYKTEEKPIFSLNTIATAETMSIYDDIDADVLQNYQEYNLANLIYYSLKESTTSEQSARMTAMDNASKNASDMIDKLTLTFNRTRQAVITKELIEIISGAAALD
# Assays:
# [1] = target: anthrax lethal factor (Bacillus anthracis) (UniProt P15917); assay: co-IP
# [2] = target: Mitochondrial ATP synthase H+ transporting F1 complex gamma polypeptide (mouse (endogenous in MH-S and LA-4)) (UniProt Q91VR2); assay: far-Western; only the binder purified
Substance,binding [1],binding [2]
Mitochondrial ATP synthase H+ transporting F1 complex gamma polypeptide (from UniProt Q91VR2),binds,–
anthrax lethal factor (from UniProt P15917 34-809) (enzyme),–,binds
